Assay results reported in article PMC4284802, “The tumour suppressor DLC2 ensures mitotic fidelity by coordinating spindle positioning and cell–cell adhesion” (Nature Communications, 2014).
Results are given in words; binding and its absence hold for the method and conditions named. For part of these data: Binding seen in cells or lysates may run through a third protein. Some binding calls cover weakened binding; strength is not graded here. For part of these data: Tags and fused reporters may be left off the sequences shown. Each block holds one molecule with its values, some of them ahead of it.

Key:
[1] = biological target: T1, DLC2 SAM domain (residues 1-130) fused to GST (human) (UniProt Q9Y3M8); assay: pull-down; GST-fusion proteins of DLC2 domains on glutathione-agarose beads incubated 2 h with HCE cell extracts; immunoblot for Kif1B, p120 catenin and GST; only the target purified
T1 sequence: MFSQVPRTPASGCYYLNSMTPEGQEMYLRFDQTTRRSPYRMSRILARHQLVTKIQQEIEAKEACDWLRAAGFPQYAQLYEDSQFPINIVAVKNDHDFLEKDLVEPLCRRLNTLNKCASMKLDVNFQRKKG

[2] = biological target: T2, DLC2 SAM domain together with the serine-rich domain (residues 1-600) fused to GST (human) (UniProt Q9Y3M8); assay: as above
T2 sequence: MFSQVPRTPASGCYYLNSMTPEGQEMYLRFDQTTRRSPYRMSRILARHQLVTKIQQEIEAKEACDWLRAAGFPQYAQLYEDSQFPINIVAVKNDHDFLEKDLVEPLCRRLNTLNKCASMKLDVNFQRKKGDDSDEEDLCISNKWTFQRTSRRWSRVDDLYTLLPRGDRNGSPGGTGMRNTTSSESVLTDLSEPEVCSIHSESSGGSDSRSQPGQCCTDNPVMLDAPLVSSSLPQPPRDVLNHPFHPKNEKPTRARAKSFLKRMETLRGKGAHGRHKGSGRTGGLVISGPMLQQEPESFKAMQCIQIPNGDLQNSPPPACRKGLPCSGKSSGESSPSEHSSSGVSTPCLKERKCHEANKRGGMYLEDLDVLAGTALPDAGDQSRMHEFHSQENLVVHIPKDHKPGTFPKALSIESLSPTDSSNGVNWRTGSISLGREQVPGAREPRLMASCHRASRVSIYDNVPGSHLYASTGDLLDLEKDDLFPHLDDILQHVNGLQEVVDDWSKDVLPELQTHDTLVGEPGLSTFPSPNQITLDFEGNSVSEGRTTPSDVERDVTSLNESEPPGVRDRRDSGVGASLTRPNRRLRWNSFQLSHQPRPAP

[3] = biological target: T3, DLC2 (Deleted in Liver Cancer 2; STARD13) (human (endogenous in HCE)) (UniProt Q9Y3M8); assay: co-IP; HCE cell extracts (0.5% Triton-X-100 in PBS, 4 °C, protease and phosphatase inhibitors); goat anti-DLC2 or rabbit anti-Kif1B antibodies conjugated to Protein G-Sepharose, control IgG of the same species; 2 h at 4 °C; immunoblot
T3 sequence: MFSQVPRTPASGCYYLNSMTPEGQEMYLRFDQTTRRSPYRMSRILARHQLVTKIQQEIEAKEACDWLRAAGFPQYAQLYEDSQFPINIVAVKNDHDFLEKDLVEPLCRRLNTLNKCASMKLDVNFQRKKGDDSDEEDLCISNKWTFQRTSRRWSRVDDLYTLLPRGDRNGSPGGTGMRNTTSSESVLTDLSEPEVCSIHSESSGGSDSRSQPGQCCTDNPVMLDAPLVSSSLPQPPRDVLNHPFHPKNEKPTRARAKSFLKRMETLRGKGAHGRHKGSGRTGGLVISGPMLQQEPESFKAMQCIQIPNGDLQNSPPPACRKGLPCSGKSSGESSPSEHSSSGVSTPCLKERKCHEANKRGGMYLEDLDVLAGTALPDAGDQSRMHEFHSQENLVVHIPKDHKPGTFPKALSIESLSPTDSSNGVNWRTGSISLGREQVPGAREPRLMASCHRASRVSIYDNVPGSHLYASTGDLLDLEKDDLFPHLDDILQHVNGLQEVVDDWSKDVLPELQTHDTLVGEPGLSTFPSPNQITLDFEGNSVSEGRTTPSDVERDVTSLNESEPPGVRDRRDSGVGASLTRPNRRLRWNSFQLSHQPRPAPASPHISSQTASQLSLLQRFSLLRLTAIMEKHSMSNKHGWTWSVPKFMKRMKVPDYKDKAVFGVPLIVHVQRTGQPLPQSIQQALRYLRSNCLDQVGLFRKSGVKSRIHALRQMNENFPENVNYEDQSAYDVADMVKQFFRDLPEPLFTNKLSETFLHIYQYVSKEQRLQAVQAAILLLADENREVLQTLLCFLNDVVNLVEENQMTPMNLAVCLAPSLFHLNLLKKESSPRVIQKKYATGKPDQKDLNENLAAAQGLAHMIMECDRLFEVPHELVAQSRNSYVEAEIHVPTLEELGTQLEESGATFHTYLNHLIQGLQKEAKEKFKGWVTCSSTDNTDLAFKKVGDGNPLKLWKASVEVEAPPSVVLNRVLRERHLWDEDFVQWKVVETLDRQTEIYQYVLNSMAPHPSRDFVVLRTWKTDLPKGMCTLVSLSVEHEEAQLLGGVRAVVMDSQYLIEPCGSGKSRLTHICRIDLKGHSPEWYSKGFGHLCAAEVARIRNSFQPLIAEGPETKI

[4] = biological target: Kif1B (human (endogenous in HCE)) (UniProt O60333); assay: as above
[5] = biological target: T1, DLC2 SAM domain (residues 1-130) fused to GST (human); assay: pull-down; purified GST-SAM domain on glutathione-agarose beads incubated 2 h with recombinant His-tagged Kif1B fusion proteins; immunoblot with anti-GST and anti-His; both purified

B2: His-tagged recombinant protein containing the Kif1B kinesin motor domain (residues 1-366) (domain or fragment, UniProt O60333-2 1-366)
chain: MSGASVKVAVRVRPFNSRETSKESKCIIQMQGNSTSIINPKNPKEAPKSFSFDYSYWSHTSPEDPCFASQNRVYNDIGKEMLLHAFEGYNVCIFAYGQTGAGKSYTMMGKQEESQAGIIPQLCEELFEKINDNCNEEMSYSVEVSYMEIYCERVRDLLNPKNKGNLRVREHPLLGPYVEDLSKLAVTSYTDIADLMDAGNKARTVAATNMNETSSRSHAVFTIVFTQKKHDNETNLSTEKVSKISLVDLAGSERADSTGAKGTRLKEGANINKSLTTLGKVISALAEVSKKKKKTDFIPYRDSVLTWLLRENLGGNSRTAMVAALSPADINYDETLSTLRYADRAKQIKCNAVINEDPNAKLVREL
binding [5]: no binding

B3: DLC2 (Deleted in Liver Cancer 2; STARD13) (protein, UniProt Q9Y3M8 1-1113)
chain: T3 sequence
binding [4]: binds

Further lines, results first:

binding [1]: binds
binding [2]: binds
binding [3]: binds
Molecule: Kif1B (from UniProt O60333 1-1816)

binding [1]: binds
binding [2]: binds
binding [3]: binds
binding [4]: binds
B1: p120 catenin (protein, UniProt O60716 1-968)
chain: MDDSEVESTASILASVKEQEAQFEKLTRALEEERRHVSAQLERVRVSPQDANPLMANGTLTRRHQNGRFVGDADLERQKFSDLKLNGPQDHSHLLYSTIPRMQEPGQIVETYTEEDPEGAMSVVSVETSDDGTTRRTETTVKKVVKTVTTRTVQPVAMGPDGLPVDASSVSNNYIQTLGRDFRKNGNGGPGPYVGQAGTATLPRNFHYPPDGYSRHYEDGYPGGSDNYGSLSRVTRIEERYRPSMEGYRAPSRQDVYGPQPQVRVGGSSVDLHRFHPEPYGLEDDQRSMGYDDLDYGMMSDYGTARRTGTPSDPRRRLRSYEDMIGEEVPSDQYYWAPLAQHERGSLASLDSLRKGGPPPPNWRQPELPEVIAMLGFRLDAVKSNAAAYLQHLCYRNDKVKTDVRKLKGIPVLVGLLDHPKKEVHLGACGALKNISFGRDQDNKIAIKNCDGVPALVRLLRKARDMDLTEVITGTLWNLSSHDSIKMEIVDHALHALTDEVIIPHSGWEREPNEDCKPRHIEWESVLTNTAGCLRNVSSERSEARRKLRECDGLVDALIFIVQAEIGQKDSDSKLVENCVCLLRNLSYQVHREIPQAERYQEAAPNVANNTGPHAASCFGAKKGKDEWFSRGKKPIEDPANDTVDFPKRTSPARGYELLFQPEVVRIYISLLKESKTPAILEASAGAIQNLCAGRWTYGRYIRSALRQEKALSAIADLLTNEHERVVKAASGALRNLAVDARNKELIGKHAIPNLVKNLPGGQQNSSWNFSEDTVISILNTINEVIAENLEAAKKLRETQGIEKLVLINKSGNRSEKEVRAAALVLQTIWGYKELRKPLEKEGWKKSDFQVNLNNASRSQSSHSYDDSTLPLIDRNQKSDKKPDREEIQMSNMGSNTKSLDNNYSTPNERGDHNRTLDRSGDLGDMEPLKGTTPLMQDEGQESLEEELDVLVLDDEGGQVSYPSMQKI
